The source of these data is PMC7819943, “Rice protein-binding microarrays: a tool to detect cis-acting elements near promoter regions in rice”.

The chains behind the UniProt entries cited, without tags or fusion partners.
UniProt Q0JBA9, entry or part of it: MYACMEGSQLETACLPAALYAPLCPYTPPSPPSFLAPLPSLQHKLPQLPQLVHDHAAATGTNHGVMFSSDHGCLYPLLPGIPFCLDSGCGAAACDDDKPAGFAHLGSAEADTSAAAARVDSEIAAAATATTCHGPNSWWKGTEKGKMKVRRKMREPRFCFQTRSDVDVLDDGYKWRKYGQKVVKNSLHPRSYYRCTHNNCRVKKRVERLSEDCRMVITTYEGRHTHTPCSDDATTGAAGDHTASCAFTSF

Some of the results follow.

The target of the test is OsWRKY34 (Oryza sativa, UniProt Q0JBA9 1-250). The test can be described thus: protein-binding microarray (RPBM); PBS, 2% BSA, 51.3 ng/ul salmon testes DNA, 50 uM zinc acetate, 200 nM TF, 25 C, 1 h; high values mean tight binding. As to conditions: protein: recombinant; tags: N-terminal polyhistidine and DsRed monomer fusion (pET32a); label: CyDye5-dUTP incorporated in the synthesized complementary strand; 3' TTTTT single-stranded linker to array surface; dsDNA, one strand shown. The procedure, abridged: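 An Axon 4000B scanner gave the binding signal as per-feature fluorescence intensity in arbitrary units. This followed washing of a custom Agilent array that had been incubated for 1 h at 25 °C with 200 nM protein in PBS, 2% BSA, salmon testes DNA and 50 µM zinc acetate. The proteins were transcription factors fused at the N-terminus to polyhistidine and DsRed, expressed in E. coli BL21-CodonPlus and purified on Ni–NTA.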
Regarding “AGAACCTTGGACTACTATTGTGGTTTTTATTTTTCTGGACCGGAGTCACCTAGTGCAG”, the binding signal was 8140 fluorescence intensity (a.u.). In the case of “TGTTTTGAATTCCATTGTTTTCCTATGTTCTTTTTTCCTACGGAGTCACCTAGTGCAG” it was 8280 fluorescence intensity (a.u.); in that of “GATATGATGGGTACAAACTGTTATAAACTAACATGTCTATCGGAGTCACCTAGTGCAG”, 8340 fluorescence intensity (a.u.). In the case of “GACCTCGCCTGTCGCCACATCATCGCTGCCGTCGCCTACTCGGAGTCACCTAGTGCAG”, the binding signal is 12900 fluorescence intensity (a.u.).

Regarding “TAATTATTTTAATGGTTTTCTCGTTTTGCCACCGTGTATTCGGAGTCACCTAGTGCAG”, the binding signal was 8320 fluorescence intensity (a.u.).

On to “ATCATGCTAGGGTACTCGATACTCTCTGAAATTTACCCTACGGAGTCACCTAGTGCAG”, for which the binding signal is 8290 fluorescence intensity (a.u.). “TAGATGTTTTGATTTTTTGTTTGCAACGTTTGACCATTCGCGGAGTCACCTAGTGCAG”: the binding signal was 8040 fluorescence intensity (a.u.). To “TGCTGCATGCTGTTGTCTTAAGTTATTTGGAGCATTCTTCCGGAGTCACCTAGTGCAG” belongs 8400 fluorescence intensity (a.u.); to “CCGCCGCCCATCAACTCCGATCCTCTCCTCACCTGGATATCGGAGTCACCTAGTGCAG”, 10100 fluorescence intensity (a.u.). In the case of “TTGGATTAGGGTGTTTGTCAATGGCATTTCATGGATTTTCCGGAGTCACCTAGTGCAG” it was 10300 fluorescence intensity (a.u.); in that of “TACTCTCCGGCGGTACCATCTGCTTCCGTTTGTTGATCGACGGAGTCACCTAGTGCAG”, 10400 fluorescence intensity (a.u.); in that of “CGATGTGTTCCGTGGGAACCGAGAGGGAGGGAGGGGATAACGGAGTCACCTAGTGCAG”, 10500 fluorescence intensity (a.u.). In the case of “ACCTATGCATCTTTCGAAAGATTTTTATGATCATATCACACGGAGTCACCTAGTGCAG” it was 8100 fluorescence intensity (a.u.); in that of “TGCTATAAATGTTCTGCTTCTTTTTTAGTTGGAACCATTTCGGAGTCACCTAGTGCAG”, 8690 fluorescence intensity (a.u.). For the sequence “AGCGGTTGTCGTGTGTGTTGGCGGCGTGGGCGGGACGAAGCGGAGTCACCTAGTGCAG”, the binding signal is 12100 fluorescence intensity (a.u.).

“CACGGTGCGGGGTTTGCAGCCGGTCTGCACAGAATTTTTTCGGAGTCACCTAGTGCAG”: the binding signal was 8160 fluorescence intensity (a.u.).

As to “GTACACTCACACCGTTGCCTCCTCATTTTATAAATATATACGGAGTCACCTAGTGCAG”, the binding signal was 9200 fluorescence intensity (a.u.). In the case of “AGTACTACTACACTACGTCCTTGTCTTCAATTCAGCGCCCCGGAGTCACCTAGTGCAG” it was 8100 fluorescence intensity (a.u.). To “CGAAGCGGGAGTCGAGCAGGGTGGGGATGGAGGCGTCGTCCGGAGTCACCTAGTGCAG” belongs 12100 fluorescence intensity (a.u.); to “CCCAACGCGACTCACCATAAATTCCAGTAAGTCTCCATTCCGGAGTCACCTAGTGCAG”, 8120 fluorescence intensity (a.u.); to “CGACGGAAGCGGGGTCGGGGAGGTTGAAGAGGAGATAGGGCGGAGTCACCTAGTGCAG”, 8290 fluorescence intensity (a.u.). In the case of “CATGTCTGAATCAGAGCACCTTATCTTTCGTCATTTTCTGCGGAGTCACCTAGTGCAG”, the binding signal was 8130 fluorescence intensity (a.u.). In the case of “TTATTTACAAACGAGTTCCATTTTTTTCTACGGTGATCGGCGGAGTCACCTAGTGCAG”, the binding signal is 8120 fluorescence intensity (a.u.). In the case of “TCACACACACCAAGCCACACCAGCAACAGCAGCAAGCAACCGGAGTCACCTAGTGCAG” it was 10500 fluorescence intensity (a.u.); in that of “GTAGGTTGATTTTATGATTTGCGTTACATACATCCTTATTCGGAGTCACCTAGTGCAG”, 8270 fluorescence intensity (a.u.). For “GGTGTGGTGGTGGTGGGGATGAGGAGCGCGATTGGGAGAGCGGAGTCACCTAGTGCAG”, the binding signal is 12800 fluorescence intensity (a.u.). In the case of “TGCGACCTCACCGTCATGGACGAACACCTGCTCACCGTCGCGGAGTCACCTAGTGCAG” it was 8740 fluorescence intensity (a.u.); in that of “ACCACGTCCCTTTCCATTTTCCCTTGTTTTTTTTCCTCCTCGGAGTCACCTAGTGCAG”, 11200 fluorescence intensity (a.u.); in that of “TCGCCGTTTCGCCGCTGGCCGCCGCCACCATCTCGCACCTCGGAGTCACCTAGTGCAG”, 8140 fluorescence intensity (a.u.).

Regarding “TATTTATTTATTTTTGACTTACTTTATTATCTAAAGTACTCGGAGTCACCTAGTGCAG”, the binding signal was 8080 fluorescence intensity (a.u.). To “GTTTCCTGACGTTTGATTTGCTTTGTATTGCAGGCTGTGACGGAGTCACCTAGTGCAG” belongs 12400 fluorescence intensity (a.u.); to “GGCTGGGATTGGCTTCGAACTCTTTCTTTCCAGCCACGACCGGAGTCACCTAGTGCAG”, 8480 fluorescence intensity (a.u.). In the case of “TGTGATAATACCTGTACTCTCTTCTTGACCAGTCTTCATTCGGAGTCACCTAGTGCAG” it was 9010 fluorescence intensity (a.u.); in that of “ATGCGTTTCTGTTTCTCGGCCAATGCTGATCCGACAACGTCGGAGTCACCTAGTGCAG”, 8800 fluorescence intensity (a.u.); in that of “GGCATTGTGGTCCTCACGGTCTCACTTGACCGTGAACAGCCGGAGTCACCTAGTGCAG”, 8640 fluorescence intensity (a.u.). As for “GGGTATCTGTCGCTTTGCTTCGCCCGCCTGCGCGTCATCACGGAGTCACCTAGTGCAG”, the binding signal was 10400 fluorescence intensity (a.u.).

Take “CGCACTCACACATCCTCGAATACGCGTCTAACACATACTCCGGAGTCACCTAGTGCAG”: the binding signal is 9440 fluorescence intensity (a.u.). For the sequence “AGTACTCCCAAGCAACGTTGACTTGACTTCCCAACTCCCACGGAGTCACCTAGTGCAG”, the binding signal is 11100 fluorescence intensity (a.u.). In the case of “GTCACGGCGCCTATTAGGCCTCCTTTTAAACCACCGAAAACGGAGTCACCTAGTGCAG” it was 10300 fluorescence intensity (a.u.); in that of “GCACTCCACGCCCTCATCCCATCGACCCACCCATCTCTCCCGGAGTCACCTAGTGCAG”, 9840 fluorescence intensity (a.u.). Take “CTGGCGAGCAGAGCAGGGGAGGGGAGGGGAGGGGATCGGGCGGAGTCACCTAGTGCAG”: the binding signal is 14200 fluorescence intensity (a.u.). In the case of “CGTTGACTTTTTTAAATATGTTTGACCGTTTATGTTATTTCGGAGTCACCTAGTGCAG” it was 44100 fluorescence intensity (a.u.).
